# Reference: PubChem BioAssay AID1347076 (National Center for Advancing Translational Sciences (NCATS), 2019)
# Values joined by “and” are separate entries in the source; they are usually repeats but may differ in a detail not shown here. Equal values may be shown once. Hit rate of the full screen: of about 400,000 compounds, about 13,000 (3.2%) were called active. This list was built around the results that the source calls inconclusive (neither active nor inactive); the mix of calls is not that of the screen. Calls come from the whole dose curve; as a rule, active = well fitted cell-killing curve with a large enough effect; inconclusive = small, poorly fitted or top-dose-only effect, or effect the other way; inactive = flat fitted curve, though single readings scatter. Potencies of inconclusive entries are doubtful fits and often do not repeat.
# Experiment: qHTS assay for MDR1-selective chemotherapeutics: Primary screen using the drug-selected MDR subline cells KB-V1; note: nearly all actives have a fitted effect of over 60% in size
# Conditions: KB-V1 MDR cells viability, CellTiter-Glo, 72 h; activity change, negative = cytotoxicity: at 46.1 µM (top of the series)
# Summary of the method: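 KB-V1 MDR subline cells in DMEM (phenol-red free, 10% FBS) exposed to compounds in qHTS concentration series for 72 h at 37 degrees C. Viability read by CellTiter-Glo luminescence; concentration-effect curves fitted after normalization and correction.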
# % is set by controls: 0 for no effect and ±100 for the full control effect; potency is the fitted concentration of half-maximal effect.
Compound,Potency,"activity change, negative = cytotoxicity"
O=C(OCCN1C(=O)c2ccccc2C1=O)Oc1ccccc1,"inconclusive: 23.1 µM [rising, single point]",
COc1ccc(-c2cc(C)no2)cc1S(=O)(=O)N(C)c1ccc(C)cc1,active: 8.2 µM,
Cc1cc(C)n(C(=O)CNC(=O)c2ccccc2Br)n1,"inconclusive: 4.11 µM [rising, partial curve]",
COc1ccc(C(=O)N2CCN(C3CCN(Cc4ccccc4)CC3)CC2)cc1OC,"inconclusive: 18.4 µM [cytotoxic, partial curve]",
Cc1nn(C)cc1CN(C)C(=O)c1cc(-c2ccccc2)nc2ccc(Br)cc12,"inconclusive: 29.1 µM [cytotoxic, single point] and inconclusive: 25.9 µM [cytotoxic, partial curve, poor fit]",
CN(C)CCCN1C(=O)c2oc3ccc(Cl)cc3c(=O)c2C1c1cccnc1 (stereo not given),,inactive: -2.68%
CC(=O)OC1COC(N2CCc3ccccc32)C(OC(C)=O)C1OC(C)=O (stereo not given),"inconclusive: 1.03 µM [rising, full curve, poor fit]",
COc1ccccc1[C@@H]1C(c2cccc(Cl)c2)=NN(c2ccc(Br)cc2)[C@H]1C(=O)N1CCOC1=O,"inconclusive: 16.4 µM [rising, single point]",
c1ccc2nc3c(cc2c1)CCCC3,"inconclusive: 29.1 µM [rising, single point]",
CCOC(=O)C(C)(C)N(Cc1ccccc1C)S(=O)(=O)c1ccc(Cl)c([N+](=O)[O-])c1,,inactive: -2.45%
O=C(CCNC(=O)c1ccc([N+](=O)[O-])cc1)NC1CCCc2ccccc21 (stereo not given),"inconclusive: 18.4 µM [cytotoxic, single point]",
COc1cc(C(=O)NCCOc2ccccc2)cc(OC)c1OC,"inconclusive: 18.4 µM [cytotoxic, single point]",
O=C(CN1CCOCC1)N/N=C/c1c(O)ccc2ccccc12,,inactive: -27.5%
CCOC(=O)Cn1c(=O)n(CC2CCCO2)c2nc(-c3ccccc3)nc(C(N)=O)c21 (stereo not given),"inconclusive: 7.31 µM [cytotoxic, partial curve]",
CCOC(=O)CC1(c2ccc(OC)c(OC)c2)C(=O)c2ccccc2C1=O,"inconclusive: 10.3 µM [cytotoxic, partial curve]",
CCOc1ccc(NC(=O)CCSc2nc3c(c(CC)c2C#N)C(=O)CC(C)(C)C3)cc1,,inactive: -18.3%
CC[C@]12c3[nH]c4cc(CCC(=O)N(C)C)ccc4c3CCN1C(=O)[C@@H](CC(=O)NCCN1CCOCC1)C[C@@H]2C(=O)N1CCN(C(=O)c2ccco2)CC1,,inactive: 14.6%
COc1ccc(C(=O)Nc2ccc(N(C)Cc3ccccc3)c(C(=O)O)c2)cc1,,inactive: 17.5%

# No new results follow: an excerpt of the list.
Compound,Potency,"activity change, negative = cytotoxicity"
CCOC(=O)CC1(c2ccc(OC)c(OC)c2)C(=O)c2ccccc2C1=O,"inconclusive: 10.3 µM [cytotoxic, partial curve]",
CCOc1ccc(NC(=O)CCSc2nc3c(c(CC)c2C#N)C(=O)CC(C)(C)C3)cc1,,inactive: -18.3%

# Later entries

Compound,Potency,"activity change, negative = cytotoxicity"
C[C@@H]1CN([C@@H](C)CO)C(=O)CCCn2nncc2CO[C@H]1CN(C)Cc1ccc(C(F)(F)F)cc1,"inconclusive: 29.1 µM [rising, single point]",
CCCOc1ccc(/C=C/C(=O)NCc2ccccc2)cc1,"inconclusive: 18.4 µM [cytotoxic, partial curve, poor fit]",
CC1CCN(C(=O)CCC(=O)Nc2nnc(C(F)(F)F)s2)CC1,"inconclusive: 29.1 µM [rising, single point]",
Cc1ccc(-c2nc(SC(C)C(=O)N3CCCC3)n[nH]2)cc1 (stereo not given),"inconclusive: 11.6 µM [cytotoxic, partial curve, poor fit]",
CCOC(=O)C1=C(C)N(c2ccccc2)C(=O)/C1=C\c1cccs1,active: 18.4 µM,
CC(C)Cn1c(N)c(C(=O)COC(=O)c2cc(C(F)(F)F)nc3ccccc23)c(=O)n(C)c1=O,,inconclusive: -30.1% [cytotoxic]
O=C(CC[C@H]1O[C@@H](n2ccc(=O)[nH]c2=O)[C@H](O)[C@@H]1O)NC1CCN(Cc2ccccc2)C1 (stereo not given in full),,inactive: 14.5%
CN(C)S(=O)(=O)c1cc(NC2CC(=O)N(c3ccc(F)cc3)C2=O)ccc1Cl (stereo not given),,inactive: 7.51%
Cc1csc(NC(=O)c2cn3ccccc3n2)n1,"inconclusive: 29.1 µM [cytotoxic, single point]",
CN1CCN(S(=O)(=O)c2ccc(NC(=O)c3ccc(F)cc3Cl)cc2)CC1,"inconclusive: 23.1 µM [cytotoxic, single point]",
COCc1cc(C)nc2c1C(=O)NC(c1ccc(F)cc1)N2Cc1ccccc1 (stereo not given),,inactive: 2.76%
O=C1/C(=C\c2cccnc2)CCc2ccccc21,"inconclusive: 18.4 µM [cytotoxic, partial curve, poor fit]",
Cc1ccc(Nc2nc(C)c(CCC(C)C)c(=O)[nH]2)cc1,,inactive: 1.59%
COc1ccccc1N1CCN(C(=O)CCCN2C(=O)c3cccc4cccc(c34)C2=O)CC1,"inconclusive: 9.2 µM [cytotoxic, partial curve, poor fit]",
CC(C)C(NC(=O)c1ccco1)C(=O)NC1CCCCCC1 (stereo not given),"inconclusive: 3.66 µM [cytotoxic, partial curve, poor fit]",
CCn1cc(/C=C(\NC(=O)c2ccccc2)C(=O)NCCCN2CCOCC2)c2ccccc21,"inconclusive: 18.4 µM [rising, partial curve, poor fit]",
C[C@@H]1COc2cc(N3CC[C@H](O)C3)ccc2S(=O)(=O)N1,"inconclusive: 16.4 µM [rising, partial curve, poor fit]",
